Earlier results on 1 molecule are cited in patent EP1017675B1, “HIGHLY LIPOPHILIC CAMPTOTHECIN DERIVATIVES” (BIONUMERIK PHARMACEUTICALS, INC., priority 1997, dated 1998).

The conditions of the data set: lactone form.

For the molecule `CC[C@@]1(O)C(=O)OCc2c1cc1n(c2=O)Cc2cc3ccccc3nc2-1` [CPT lactone, Camptothecin], the water solubility entry is “about 1 µg/mL”.
